# Reference: PubChem BioAssay AID2685 (National Center for Advancing Translational Sciences (NCATS), 2010)
# Out of some 320,000 compounds screened, about 2,100 (0.66%) were called active. Inconclusive results, whose numbers are uncertain, are shown with a selection of clear calls. The call rests on the fitted dose curve; in most records, active means well fitted inhibition curve with a large enough effect in the signal ratio, with a control signal flat (not every such curve was filed as active); inconclusive means small, poorly fitted or top-dose-only effect, or effect the other way, or a change in a side signal; inactive means flat fitted curve, though single readings scatter; the % refers to the signal ratio. Potencies of inconclusive entries are doubtful fits and often do not repeat.
# Test: qHTS Assay for Lipid Storage Modulators in Drosophila S3 Cells
# Details: BODIPY lipid droplet fluorescence, 18-24 h, cells fed with added oleic acid; lipid storage change, negative = inhibition: at 46.1 µM (top of the series) unless noted
# Method in brief: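 Drosophila S3 cells loaded with oleic acid (400 uM, as added) and compounds at several concentrations; lipid droplets imaged by 488-nm laser-scanning cytometry, 500–530 nm intensity and object ratio to cell channel. Percent activity normalized to 20 uM Triacsin C.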
# On the % scale 0 is the no-effect control and ±100 the full control effect; potency means the concentration at half of the fitted maximal effect.
SMILES,Potency,"lipid storage change, negative = inhibition"
Cc1ccc(SCc2[nH]nc3c2C2(CCSCC2)C(C#N)=C(N)O3)cc1,"inconclusive: 0.206 µM [activator, full curve]",
CCOc1ccc(S(=O)(=O)NCCC(=O)NCc2ccco2)cc1,,inconclusive: 37.6%
CCc1ccc(S(=O)(=O)N/N=C\c2ccc([N+](=O)[O-])o2)cc1,"inconclusive: 29.1 µM [rising, single point]",
CCOC(=O)c1cnn2c(N)c(C#N)cnc12,,inconclusive: -28.8% [at 9.22 µM]
Cc1nnc(N(Cc2ccccc2)C(=O)c2cnccn2)s1,,inconclusive: 70.2%
Cc1cc(N/N=C/c2ccc(O)cc2)c2cccc(C)c2n1,"inconclusive: 16.4 µM [rising, partial curve]",
COCCCNC(=O)CCc1nc(-c2ccccc2Cl)no1,,inconclusive: 23.6%
CN1CCN(c2ccccc2NC(=O)c2ccc(Br)o2)CC1,,inconclusive: 24%
NNC(=O)c1cccn(Cc2cccc(C(F)(F)F)c2)c1=O,,inconclusive: -71%
CCOc1ccc(NC(=S)c2ccncc2)cc1,"inconclusive: 29.1 µM [falling, single point]",
Cc1ccc(C(=O)OCC(=O)N2CCCC2)cc1,,inconclusive: 62.3%
CCCCn1c(N)c(N(CCC(C)C)C(=O)c2ccc(N3CCCC3=O)cc2)c(=O)[nH]c1=O,,inconclusive
C=CCCCCCCCCc1nc(SCC(C)=O)n[nH]1,,inconclusive: 8.58%
CC1(C)Cc2c(sc3c2c(=N)n(Cc2ccco2)c(=O)n3CC(=O)Nc2cccc(Cl)c2)CO1,"inconclusive: 0.103 µM [activator, full curve, poor fit]",
Cc1ccc(NS(=O)(=O)c2ccc(CCC(=O)NCc3ccccn3)cc2)cc1,active: 2.59 µM,
CCCCc1ccc(-c2csc(/C(C#N)=C\c3ccc(C)o3)n2)cc1,,inconclusive: -29.5%
O=C(COC(=O)CCC(=O)c1ccccc1)NCCc1ccccc1,"inconclusive: 29.1 µM [activator, single point]",
CC1(C)CC(=O)c2cc(OCC(=O)N3CCCCCC3)ccc2O1,,inconclusive: 15.8%
O=C(COC(=O)CSc1ccc([N+](=O)[O-])cc1)NCCC1=CCCCC1,,inconclusive: -3.4%
CC1CCCN(S(=O)(=O)c2ccc3[nH]c4c(c3c2)CCCC4)C1 (configuration not stated),,inconclusive: -27%
COc1ccc(OC)c(NC(=O)c2oc3c(c2C)C(O)CC(C)(C)C3)c1 (configuration not stated),,inconclusive: 38.5% [at 0.00295 µM]
Cc1ccc(NC(=O)C2CCCN2C(=O)Oc2ccccc2)c(C)c1 (configuration not stated),,inconclusive: 36%
O=C(COc1ccccc1)NCc1cccs1,"inconclusive: 25.9 µM [falling, single point]",
O=C(O)CN1C(=O)SC(Nc2ccc(Cl)cc2)C1=O (configuration not stated),,inconclusive: 8.32%

# Shown with tabs: 2 of the compounds above.
SMILES	Potency	lipid storage change, negative = inhibition
Cc1ccc(C(=O)OCC(=O)N2CCCC2)cc1		inconclusive: 62.3%
CCCCn1c(N)c(N(CCC(C)C)C(=O)c2ccc(N3CCCC3=O)cc2)c(=O)[nH]c1=O		inconclusive

# Single values from the list:
# COCCCNC(=O)CCc1nc(-c2ccccc2Cl)no1 – lipid storage change, negative = inhibition: inconclusive: 23.6%
# CCOc1ccc(S(=O)(=O)NCCC(=O)NCc2ccco2)cc1 – lipid storage change, negative = inhibition: inconclusive: 37.6%

# (list continues)

SMILES,Potency,"lipid storage change, negative = inhibition"
CCN(C(=O)COC(=O)c1ccc(C)c(S(=O)(=O)N2CCOCC2)c1)C1CCS(=O)(=O)C1 (configuration not stated),,inconclusive: 58.7%
O=C(CN(Cc1ccccc1)S(=O)(=O)c1ccc2c(c1)OCCO2)N/N=C/c1cccc(Br)c1,,inconclusive: 15.9%
O=[N+]([O-])c1cc(S(=O)(=O)Nc2ccccc2)ccc1-n1nnc2ccccc21,,inconclusive: 8.91%
Cc1sc2nc(SCc3ccc(C(=O)O)cc3)n(Cc3ccco3)c(=O)c2c1C,,inconclusive: -9.94%
CCC(C)(C(=O)NC1CCCCC1)N(C)C(=O)c1ccc2c(c1)OCO2 (configuration not stated),,inconclusive: -1.28%
CCn1c(=O)c(C(=O)NCc2ccccn2)c(O)c2ccccc21,,inconclusive: 23.2%
CN(C)S(=O)(=O)c1ccc(N2CCCC2)c(C(=O)N2CCN(S(=O)(=O)c3cccc(F)c3)CC2)c1,,inconclusive
CCCCOc1ccc2c(C)cc(=O)oc2c1OCCCC,,inconclusive: -13.6%
Cc1c(CC(=O)N[C@@H](C)C(=O)O)c(=O)oc2c(C)c3occ(-c4ccccc4)c3cc12,,inconclusive: 32.9%
O=C(Nc1nc(-c2ccccc2)cs1)C1CCCCN1S(=O)(=O)c1ccc(Cl)cc1 (configuration not stated),"inconclusive: 0.231 µM [activator, full curve, poor fit]",
CCOC(=O)C(Cc1ccc(NC(=O)/C(=C/c2ccccc2)NC(=O)c2ccccc2)cc1)N1C(=O)c2ccccc2C1=O (configuration not stated),,inconclusive: -28.9%
Cc1ccc(NC(=O)CCN2C(=O)NC3(CCCC3)C2=O)cc1S(=O)(=O)N1CCOCC1,"inconclusive: 23.1 µM [activator, single point]",
COc1ccc(N2CCN(C(CNC(=O)CC(C)(C)C)c3ccc4c(c3)OCO4)CC2)cc1 (configuration not stated),"inconclusive: 16.4 µM [activator, partial curve]",
COCCNc1ccc([N+](=O)[O-])cc1C(=O)NC1CCCc2ccccc21 (configuration not stated),"inconclusive: 29.1 µM [activator, single point]",
CCCN1CCN(C(=O)C2CCN(S(=O)(=O)c3c(C)noc3/C=C/c3ccc(C)cc3)CC2)CC1,,inconclusive: -13.7%
Cc1ccc(S(=O)(=O)N/N=C/c2cccs2)cc1,,inconclusive: -14.1%
CCN(C(=O)COC(=O)CCc1c[nH]c2ccccc12)c1c(N)n(Cc2ccccc2)c(=O)[nH]c1=O,,inconclusive: -25.3%
COc1ccc(S(=O)(=O)Nc2ncccc2C)c2ccccc12,"inconclusive: 1.84 µM [activator, full curve]",
C#CCOCCOCCOCCNc1nc(N2CCN(C(=O)[C@H](CCCCN)n3cc(CCCC)nn3)CC2)nc(N2CCN(C(=O)[C@H](CCCCN)n3cc(CCC(=O)O)nn3)CC2)n1,,inconclusive: 8.48%
COc1ccc(C(=O)C(CCC(CNC(C)(C)C)C(=O)c2ccc(OC)cc2)CNC(C)(C)C)cc1 (configuration not stated),,inconclusive: -31.3%
CCCCC(CC)C(=O)Oc1ccc(O)c(C(C)(C)C)c1 (configuration not stated),active: 25.9 µM,
Cc1ccc(CNC(=O)C(Cc2ccccc2)NS(=O)(=O)c2ccc(Br)s2)cc1 (configuration not stated),,inconclusive: -2.59%
O=C(NCC(c1ccco1)N1CCOCC1)c1ccccc1 (configuration not stated),,inconclusive: 0.409%
